Measurements as given in PubChem BioAssay AID488837 (National Center for Advancing Translational Sciences (NCATS), 2010).
Among all 330,000 compounds or so, about 20 (0.006%) were called active. The shares of active, inactive and inconclusive entries below differ from those in the screen. The call rests on the fitted dose curve; in most records, active means well fitted inhibition curve with a large enough effect; inconclusive means small, poorly fitted or top-dose-only effect, or effect the other way; inactive means flat fitted curve, though single readings scatter. Potencies of inconclusive entries are doubtful fits and often do not repeat.

The chains behind the UniProt entries cited, without tags or fusion partners. Where a name states a change or a piece, a line headed by the entry shows the natural chain unless it says otherwise.
UniProt O00167: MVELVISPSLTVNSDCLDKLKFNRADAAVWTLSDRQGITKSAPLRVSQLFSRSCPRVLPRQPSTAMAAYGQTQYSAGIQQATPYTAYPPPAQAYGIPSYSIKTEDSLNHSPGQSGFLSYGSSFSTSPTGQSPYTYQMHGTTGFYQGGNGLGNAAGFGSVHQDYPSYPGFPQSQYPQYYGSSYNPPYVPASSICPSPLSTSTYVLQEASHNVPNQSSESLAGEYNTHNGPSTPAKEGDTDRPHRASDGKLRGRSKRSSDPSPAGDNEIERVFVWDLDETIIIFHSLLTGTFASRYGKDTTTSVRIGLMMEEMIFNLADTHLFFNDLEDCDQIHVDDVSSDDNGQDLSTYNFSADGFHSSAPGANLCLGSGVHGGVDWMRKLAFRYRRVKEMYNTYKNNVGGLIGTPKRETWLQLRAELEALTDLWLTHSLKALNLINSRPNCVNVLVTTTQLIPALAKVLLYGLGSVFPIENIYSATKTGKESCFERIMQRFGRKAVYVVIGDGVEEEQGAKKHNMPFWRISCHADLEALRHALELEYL

target: Protein phosphatase EYA2 (Homo sapiens) (UniProt O00167); assay: qHTS Assay for Inhibitors of the Phosphatase Activity of Eya2; details: recombinant Eya2, OMFP fluorescence dephosphorylation (OMFP is methylfluorescein phosphate); activity, negative = inhibition: at 76.9 µM (top of the series) unless noted
In short: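 Eya2 (0.2 uM) preincubated 10 min at ambient with compound, then OMFP substrate added at 50 uM; 10 min reaction in 50 mM HEPES pH 7.5, 50 mM NaCl, 5 uM MgCl2, 0.05% BSA, 1 mM DTT. Fluorescence read at Ex 485/Em 525 nm.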
On the % scale 0 is the no-effect control and ±100 the full control effect; potency means the concentration at half of the fitted maximal effect.

Row | SMILES | Potency | activity, negative = inhibition
1 | Nc1c(Cl)cc(Cl)cc1C(=O)OCC(=O)N1CCCC1 | inactive | 
2 | Nc1cccc2nc3ccccc3cc12 | inconclusive: 794 µM [inhibitor, partial curve] | 
3 | O=C(NCc1ccc(Cl)cc1)C1CCC(CNc2c(N3CCCC3)c(=O)c2=O)CC1 (stereo unspecified) | inconclusive: 100 µM [inhibitor, single point] | 
4 | COc1cc2[nH]c(=S)nc(NCc3cccs3)c2cc1OC | inactive | 
5 | O=C(O)C1Nc2c(O)cccc2C2C=CCC12 (stereo unspecified) | inactive | 
6 | CN1CCN(C(=O)C23CCC(C)(C(=O)C2Br)C3(C)C)CC1 (stereo unspecified) | inconclusive: 15.8 µM [inhibitor, partial curve, poor fit] | 
7 | CCCC(=O)Nc1ccc2c(c1)nc(CN1CCN(C(=O)OCC)CC1)n2CC | inconclusive: 63.1 µM [inhibitor, partial curve] | 
8 | CCCOc1ccc(CCC(=O)N/N=C/c2ccncc2)cc1 | inconclusive: 22.4 µM [inhibitor, single point] | 
9 | Cc1ccccc1S(=O)(=O)Cc1ccc(C(=O)NC2CCCCC2)o1 | inconclusive: 22.4 µM [inhibitor, single point] | 
10 | CCc1ccc(NS(=O)(=O)c2ccc3[nH]cc(C(=O)NCC4CCCO4)c(=O)c3c2)cc1 (stereo unspecified) | inconclusive: 1580 µM [inhibitor, partial curve, poor fit] | 
11 | CCO[C@@H]1OC(C(=O)N2CCN(Cc3ccccc3)CC2)=C[C@H](c2ccccc2)[C@H]1CCCO | inconclusive: 14.1 µM [inhibitor, single point] | 
12 | Cc1cc(OCC(=O)OCC(=O)Nc2cc(S(=O)(=O)N3CCOCC3)ccc2Cl)ccc1Cl | inconclusive: 89.1 µM [inhibitor, partial curve] | 
13 | c1cncc(CSc2ccc(-c3ccc4c(c3)OCO4)nn2)c1 | inactive | 
14 | CC(=O)c1ccc(NC(=O)c2ccc(CNc3c(N4CCCC4)c(=O)c3=O)cc2)cc1 | inconclusive: 22.4 µM [inhibitor, single point] | 
15 | CCCCCC(O)(c1ccccc1)C(CN1CCOCC1)c1ccccc1 (stereo unspecified) | inconclusive: 126 µM [inhibitor, single point] | 
16 | Cc1nc(C)c(-c2csc(Nc3cccc(O)c3)n2)s1 | inactive | 
17 | O=C(OCC(=O)c1cccs1)c1ccc(NC(=O)c2ccco2)cc1 | inactive | 
18 | CCN(CC)CC(=O)NC1CC(C)(C)Cc2c1cnn2-c1ccc(F)cc1 (stereo unspecified) | inconclusive: 22.4 µM [inhibitor, single point] | 
19 | COc1cc(COc2ccc3c(C)c(Cc4ccccc4)c(=O)oc3c2C)cc(OC)c1OC | inactive | 
20 | CCS(=O)(=O)C1=NN2C(=N)/C(=C\c3ccc(SCc4ccco4)o3)C(=O)N=C2S1 |  | inconclusive: 35.1% [activator]
21 | CCn1cc(C(=O)NCCc2ccc(Cl)cc2)c(=O)c2ccc(C)nc21 | inconclusive: 22.4 µM [inhibitor, single point] | 
22 | O=c1oc2c(CN3CCCCC3)c(O)ccc2cc1-c1nc2ccccc2[nH]1 | inconclusive: 31.6 µM [activator, partial curve] | 

Row | SMILES | Potency | activity, negative = inhibition
23 | CC(=O)Nc1ccc(S(=O)(=O)Nc2ccccc2C(=O)N2CCCCCC2)cc1 | inconclusive: 28.2 µM [inhibitor, single point] | 
24 | COc1cccc2c1O/C(=N\O)C(C(=O)Nc1cccc(C)c1C)C2 (stereo unspecified) | inconclusive: 100 µM [inhibitor, single point] | 
25 | Cc1c(NC(=O)Nc2ccccc2[N+](=O)[O-])c(=O)n(-c2ccccc2)n1C | inconclusive: 251 µM [inhibitor, partial curve, poor fit] | 
26 | COc1ccc(CNC(=O)CN2C(=O)COc3ccc(S(=O)(=O)N4CCCC4)cc32)cc1 | inconclusive: 100 µM [inhibitor, single point] | 
27 | CCCCOC(=O)c1ccc(NC(=S)N2CCN(c3ncc4c(=O)c(C(=O)O)cn(CC)c4n3)CC2)cc1 | inconclusive: 22.4 µM [inhibitor, single point] | 
28 | COc1ccc(C(=O)Nc2ccc(CN3CCS(=O)(=O)CC3)cc2)cc1 | inconclusive: 89.1 µM [inhibitor, single point] | 
29 | O=C(c1ccc(F)cc1F)C1CCN(c2ccc([N+](=O)[O-])cn2)CC1 | inconclusive: 89.1 µM [inhibitor, single point] | 
30 | CCCCC(=O)O[C@H]1CC[C@H]2[C@@H]3CCc4cc(O)ccc4[C@H]3CC[C@]12C | inconclusive: 282 µM [inhibitor, partial curve, poor fit] | 
31 | Cc1onc(-c2c(F)cccc2Cl)c1C(=O)N=C(N)N1CC(C)OC(C)C1 (stereo unspecified) | inconclusive: 112 µM [inhibitor, single point] | 
32 | O=C(NCCN1CCN(c2ccccc2)CC1)Nc1ccc(Cl)cc1 | inconclusive: 25.1 µM [inhibitor, single point] | 
33 | O=C1CSC(=S)N1/N=C/c1ccc(O)c(O)c1O | inconclusive: 200 µM [inhibitor, partial curve] | 
34 | C=CCNc1ncnc2sc(SC)nc12 | inconclusive: 22.4 µM [inhibitor, single point] | 
35 | COc1cc2cc(CN(CCCO)S(=O)(=O)c3ccccc3)c(=O)[nH]c2cc1OC | inactive | 
36 | COc1ccc(CN2CCN(CCc3ccccc3)C(CCO)C2)c(Cl)c1OC (stereo unspecified) | inconclusive: 89.1 µM [inhibitor, single point] | 
37 | Cc1cc(C)nc(N/N=C/c2cccc([N+](=O)[O-])c2)n1 | inconclusive: 141 µM [inhibitor, partial curve] | 
38 | CCOC(=O)c1c(-c2ccccc2)oc2ccc(OCC(=O)NNC(=O)CCC(=O)O)cc12 | inconclusive: 22.4 µM [inhibitor, single point] | 
39 | CC(C)CCN(C(=S)Nc1cccc(C(F)(F)F)c1)C(C)c1ccccn1 (stereo unspecified) | inconclusive: 89.1 µM [inhibitor, single point] | 
40 | Cc1cccc(NC(=O)NCc2cccnc2)c1C | inactive | 
41 | Fc1ccc(-c2csc(-c3ccccn3)n2)cc1F | inactive | 
42 | COC(=O)[C@H](C)NC(=O)Nc1cccc(Br)c1 | inconclusive: 35.5 µM [inhibitor, partial curve, poor fit] | 
43 | NC(=O)C1(NC(=O)[C@@H]2CC3(CC(c4cccc(NC(=O)[C@@H]5CCC(=O)N5)c4)=NO3)CN2C(=O)Cc2ccc(C(F)(F)F)cc2)CC1 (stereo partly specified) | inconclusive: 158 µM [inhibitor, partial curve] | 
44 | COc1ccc(C(=O)Nc2nnc(Cc3cccs3)s2)cc1OC | inconclusive: 35.5 µM [inhibitor, partial curve] | 

One compound at a time, from the list above.
`CCCCC(=O)O[C@H]1CC[C@H]2[C@@H]3CCc4cc(O)ccc4[C@H]3CC[C@]12C` in the list: Potency: inconclusive: 282 µM [inhibitor, partial curve, poor fit]
`c1cncc(CSc2ccc(-c3ccc4c(c3)OCO4)nn2)c1` in the list: Potency: inactive

The results go on.

Row | SMILES | Potency | activity, negative = inhibition
45 | O=C(c1cc2c(s1)CCCC2)N1CCN(CCO)CC1 | inconclusive: 100 µM [inhibitor, partial curve, poor fit] | 
46 | COc1ccc(OC)c(Nc2nc(-c3ccncc3)nc3ccccc23)c1 | inconclusive: 100 µM [inhibitor, single point] | 
47 | Cc1cc(Br)cc2cn[nH]c12 | inconclusive: 112 µM [inhibitor, single point] | 
48 | O=C(CSCc1c(F)cccc1Cl)Nc1ccccc1C(=O)N1CCOCC1 | inconclusive: 89.1 µM [inhibitor, single point] | 
49 | O=C(c1ccccc1)N1CCN(C(=O)c2nn3c(C(F)(F)F)cc(-c4ccco4)nc3c2Cl)CC1 | inconclusive: 25.1 µM [inhibitor, single point] | 
50 | Cc1ccc(O)c(Nc2c3ccccc3nc3ccccc23)c1 | inactive | 
51 | CN1CCN(C(=O)CSc2ccc(C(F)(F)F)cc2[N+](=O)[O-])CC1 | inactive | 
52 | Cc1oc2cc(O)ccc2c(=O)c1-c1cnn(-c2ccccc2)c1 | inconclusive: 100 µM [inhibitor, single point] | 
53 | COc1ccc(C(=O)c2ccccc2)c(OCC(=O)NC2CC2)c1 | inconclusive: 89.1 µM [inhibitor, single point] | 
54 | Cc1cc(N)ccc1NC(=O)CN1CCCC1 | inconclusive: 25.1 µM [inhibitor, single point] | 
55 | N#C/C(C(N)=O)=C1/SC(Cc2ccc(F)cc2)C(=O)N1c1ccccc1 (stereo unspecified) | inconclusive: 31.6 µM [inhibitor, single point] | 
56 | Nc1n[nH]c(N)c1N=Nc1cccc(C(F)(F)F)c1 | inconclusive: 89.1 µM [inhibitor, single point] | 
57 | O=C(O)c1cncc(Br)c1 | inconclusive: 100 µM [inhibitor, single point] | 
58 | Cc1cc(C(=O)N/N=C/c2ccc3c(c2)OCO3)c2ccccc2n1 | inconclusive: 39800 µM [inhibitor, partial curve, poor fit] | 
59 | Cc1ccc(C2=NOC3(CC(=O)N(c4ccccc4)C3=O)C2)cc1 (stereo unspecified) | inconclusive: 126 µM [activator, partial curve, poor fit] | 
60 | CCN(CC(O)Cn1c2ccccc2c2ccccc21)S(=O)(=O)c1ccc(F)cc1 (stereo unspecified) | inconclusive: 100 µM [inhibitor, single point] | 
61 | COCCn1nnnc1C(C(C)C)N(Cc1ccccc1)Cc1cc2cc(OC)ccc2[nH]c1=O (stereo unspecified) | inactive | 
62 | COC(=O)\C(C(C)=O)=C(/C=C/C=C/N(C)C)N(C)C | inactive | 
63 | CN(Cc1ccccc1N1CCCC1)C(=O)c1cc2cc(Cl)ccc2o1 | inconclusive: 112 µM [inhibitor, single point] | 
64 | CC(=O)N1[C@@H]2CC3C4CC=C5C[C@@H](O)CC[C@]5(C)C4CC[C@]3(C)[C@@]21C(C)=O (stereo partly specified) | inactive | 
65 | O=C(O)c1cccc(-n2cccc2/C=C2\NC(=O)N(Cc3ccc(F)cc3)C2=O)c1 | inactive | 
66 | COc1ccc(C(F)(F)F)cc1N/C=C\c1nnnn1-c1ccc(C)cc1 | inconclusive: 79.4 µM [inhibitor, single point] | 

Three of the compounds above, as labelled records.
Nc1n[nH]c(N)c1N=Nc1cccc(C(F)(F)F)c1
  Potency: inconclusive: 89.1 µM [inhibitor, single point]
O=C(O)c1cncc(Br)c1
  Potency: inconclusive: 100 µM [inhibitor, single point]
COC(=O)\C(C(C)=O)=C(/C=C/C=C/N(C)C)N(C)C
  Potency: inactive
